Experimental data taken from PubChem BioAssay AID504847 (National Center for Advancing Translational Sciences (NCATS), 2011).
Out of some 400,000 compounds screened, about 3,700 (0.93%) were called active. Inconclusive means that the source gave no clear call. Such entries were picked first, then a sample of the others. The call rests on the fitted dose curve; in most records, active means well fitted inhibition curve with a large enough effect; inconclusive means small, poorly fitted or top-dose-only effect, or another doubt; inactive means no such curve, though single readings can be large or run the other way. Potencies of inconclusive entries are doubtful fits and often do not repeat.

Chains of the proteins cited; added tags and fusions are not shown. Lines headed by an entry give the natural chain unless they say otherwise; changes in a name come on top.
UniProt P11473: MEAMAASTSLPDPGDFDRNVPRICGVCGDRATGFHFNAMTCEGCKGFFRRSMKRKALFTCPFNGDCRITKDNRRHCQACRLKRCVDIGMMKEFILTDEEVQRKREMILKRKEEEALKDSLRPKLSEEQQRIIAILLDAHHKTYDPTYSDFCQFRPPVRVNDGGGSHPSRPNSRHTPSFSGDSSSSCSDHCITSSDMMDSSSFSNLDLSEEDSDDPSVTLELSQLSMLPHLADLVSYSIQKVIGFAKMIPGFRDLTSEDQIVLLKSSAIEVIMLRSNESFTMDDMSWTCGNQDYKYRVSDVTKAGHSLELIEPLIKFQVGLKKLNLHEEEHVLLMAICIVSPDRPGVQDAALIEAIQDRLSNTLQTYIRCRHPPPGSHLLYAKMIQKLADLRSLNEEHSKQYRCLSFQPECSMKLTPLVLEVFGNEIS

molecular target: Vitamin D3 receptor (Homo sapiens) (UniProt P11473); assay: Inhibitors of the vitamin D receptor (VDR): qHTS; settings: VDR-SRC2-3 peptide fluorescence polarization, 2 h; max response, negative = inhibition: stronger effect = lower value
How it was run: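 Fluorescence polarization assay measuring small-molecule disruption of VDR binding to the coregulator peptide SRC2-3. Compounds were pin-transferred (23 nl) into the reagent mix and incubated 2 h at room temperature before reading.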
On the % scale 0 is the no-effect control and ±100 the full control effect; potency means the concentration at half of the fitted maximal effect.

SMILES	max response, negative = inhibition	Potency
Cc1ccc(S(=O)(=O)N2CCN(C)CC2)c(C)c1	inactive: -3.84%	
O=S(c1cc(Cl)cc(Cl)c1O)c1cc(Cl)cc(Cl)c1O		active: 39.8 µM
CC[C@H](C(=O)[C@H](C)[C@H](O)[C@H](C)CCc1ccc(C)c(O)c1C(=O)O)[C@H]1O[C@](CC)([C@@H]2CC[C@@](O)(CC)[C@H](C)O2)C[C@H]1C		inconclusive: 22.4 µM [inhibitor, partial curve, poor fit]
CCOC(=O)N1CCN(C(=O)CSc2nc(-c3cccc(C)c3)ns2)CC1		inconclusive: 31.6 µM [inhibitor, single point]
Cc1cccc(-n2c(CCc3ccccc3)nnc2SCC(=O)c2ccccc2)c1		inconclusive: 89.1 µM [inhibitor, single point]
COc1ccc(-n2c(SCC(=O)Nc3ccccc3OC)nc(O)cc2=O)cc1		inconclusive: 89.1 µM [inhibitor, single point]
O=C(NCc1ccccc1)c1nc(S(=O)(=O)Cc2ccc(F)cc2)ncc1Cl		active: 31.6 µM
Cc1ccc(C(=O)NC(=S)NCc2ccco2)cc1		inconclusive: 79.4 µM [inhibitor, partial curve]
CCc1nc(-c2cc(S(=O)(=O)N3CCN(c4ccc(OC)cc4)CC3)ccc2OC)no1		inconclusive: 20 µM [inhibitor, partial curve, poor fit]
Cc1ccc(S(=O)(=O)N2CC(O)CC2C(=O)OCc2nc3sc(C)c(C)c3c(=O)[nH]2)cc1 (configuration not stated)	inactive: 9.34%	
Cc1ccc(NC(=O)c2cccc(S(=O)(=O)N(C)c3ccccc3)c2)cc1S(=O)(=O)N1CCOCC1		inconclusive: 100 µM [inhibitor, single point]
COc1ccc(NC(=O)c2nn(C)c3c2CS(=O)(=O)c2ccccc2-3)cc1Cl	inactive: 3.17%	
COc1ccc(-c2nn(CCC#N)cc2C=C(C#N)C#N)cc1		inconclusive: 70.8 µM [inhibitor, partial curve, poor fit]
O=C(O)c1ccc(/C=C2/SC(=S)N(c3cccc(C(F)(F)F)c3)C2=O)cc1		inconclusive: 11.2 µM [inhibitor, full curve]
CCc1nccn1S(=O)(=O)c1ccc(OC)c(OC)c1		inconclusive: 12.6 µM [inhibitor, partial curve, poor fit]
Cc1ccc(Oc2nc3ccccn3c(=O)c2/C=C(\C#N)C(=O)Nc2c(C)n(C)n(-c3ccccc3)c2=O)c(C)c1		inconclusive: 70.8 µM [inhibitor, partial curve, poor fit]
O=C1Nc2ccccc2SC(c2ccccc2)C1O (configuration not stated)	inactive: -10.4%	
COc1ccc(CNC(=O)c2nc(SCc3ccc(C)cc3)ncc2Cl)cc1	inactive: 8.2%	
CN(CCC1CCOCC1)C(=O)CC1C(=O)NCCN1Cc1ccccc1F (configuration not stated)	inactive: 0.275%	
CC1(C)CC(N2CCCC2)=CC(=[N+]2CCCCCC2)C1	inactive: -19.2%	
CCC(C)N(C(=O)Cn1c(Cl)nc2c1c(=O)n(C)c(=O)n2C)C1CCS(=O)(=O)C1 (configuration not stated)	inactive: 11.4%	

SMILES	max response, negative = inhibition	Potency
O=[N+]([O-])c1cc(Br)c(O)c(C=Nc2ccc(N3CCOCC3)cc2)c1		inconclusive: 1.58 µM [inhibitor, full curve, poor fit]
CN(C)CCNc1c(N)c(=O)oc2ccccc12	inactive: 8.62%	
C=CCN(C(=O)CCC(=O)Nc1cc(C)on1)C(C(=O)NC1CCCC1)c1ccc(CC)cc1 (configuration not stated)		inconclusive: 44.7 µM [inhibitor, partial curve, poor fit]
CC1(C(=O)OCC(=O)Nc2ccccc2)CC1(Cl)Cl (configuration not stated)	inactive: -13.3%	
O=[N+]([O-])c1cccc(-c2ccc(C(=S)N3CCN(c4ccccc4)CC3)o2)c1		inconclusive: 28.2 µM [inhibitor, single point]
COc1cc(C2CC(=O)N3CN(Cc4ccco4)CSC3=C2C#N)ccc1OCc1ccccc1 (configuration not stated)		inconclusive: 20 µM [inhibitor, full curve, poor fit]
Cn1cccc1C(C#N)c1ncc(C(F)(F)F)cc1Cl (configuration not stated)		inconclusive: 3.55 µM [inhibitor, full curve]
Cn1c(=O)c([N+](=O)[O-])c(Cl)c2ccccc21		active: 17.8 µM
CN(C(=O)COC(=O)c1ccccc1Cc1ccccc1)c1c(N)n(Cc2ccccc2)c(=O)[nH]c1=O	inactive: 9.35%	
O=C(NCc1ccco1)C1Cc2ccccc2CN1S(=O)(=O)c1ccccc1F (configuration not stated)		inconclusive: 89.1 µM [inhibitor, single point]
O=C(COc1ccccc1Cl)Nc1ccccc1C(=O)Nc1cccc(C(=O)O)c1	inactive: 0.582%	
O=C(c1ccco1)N(Cc1cccc(Br)c1)C1CCS(=O)(=O)C1 (configuration not stated)		inconclusive: 70.8 µM [inhibitor, partial curve, poor fit]
CCN(CC)CCn1c(=O)n(-c2ccc(Cl)cc2)c(=O)c2c3c(sc21)CN(C)CC3		inconclusive: 56.2 µM [inhibitor, partial curve, poor fit]
O=C(Nc1ccc(Cl)cc1)Nc1ccccc1Sc1ncc([N+](=O)[O-])s1		active: 10 µM
CN1CCN(c2ccc(NC(=O)COc3ccc4ccccc4c3)cc2)CC1	inactive: -1.29%	
O=C(Cc1ccccc1F)Nc1ccc(S(=O)(=O)N2CCCC2)cc1	inactive: 5.78%	
COc1ccc(-n2c(Cc3cccn3C)nnc2SCC(=O)Nc2ccc(C(C)=O)cc2)cc1	inactive: 15.6%	
COc1ccc(C(Nc2ccccn2)c2oc(CO)cc(=O)c2O)cc1 (configuration not stated)		inconclusive: 44.7 µM [inhibitor, partial curve, poor fit]
CCCN(C(=O)Nc1cn(CC(C)C)c(=O)c2ccccc12)c1ccc(F)cc1	inactive: 3.88%	
CCOC(=O)Cc1csc(NC(=O)NC2(C(F)(F)F)Oc3ccccc3O2)n1		inconclusive: 12.6 µM [inhibitor, full curve, poor fit]
CC(=O)N1CCc2c(sc3c2c(=O)n(-c2ccc(C)cc2)c(=O)n3Cc2ccccc2C)C1	inactive: 3.28%	

8 entries from above, reformatted.

| SMILES | max response, negative = inhibition | Potency |
| --- | --- | --- |
| COc1cc(C2CC(=O)N3CN(Cc4ccco4)CSC3=C2C#N)ccc1OCc1ccccc1 (configuration not stated) |  | inconclusive: 20 µM [inhibitor, full curve, poor fit] |
| Cn1cccc1C(C#N)c1ncc(C(F)(F)F)cc1Cl (configuration not stated) |  | inconclusive: 3.55 µM [inhibitor, full curve] |
| Cn1c(=O)c([N+](=O)[O-])c(Cl)c2ccccc21 |  | active: 17.8 µM |
| CN(C(=O)COC(=O)c1ccccc1Cc1ccccc1)c1c(N)n(Cc2ccccc2)c(=O)[nH]c1=O | inactive: 9.35% |  |
| O=C(NCc1ccco1)C1Cc2ccccc2CN1S(=O)(=O)c1ccccc1F (configuration not stated) |  | inconclusive: 89.1 µM [inhibitor, single point] |
| O=C(COc1ccccc1Cl)Nc1ccccc1C(=O)Nc1cccc(C(=O)O)c1 | inactive: 0.582% |  |
| O=C(c1ccco1)N(Cc1cccc(Br)c1)C1CCS(=O)(=O)C1 (configuration not stated) |  | inconclusive: 70.8 µM [inhibitor, partial curve, poor fit] |
| CCN(CC)CCn1c(=O)n(-c2ccc(Cl)cc2)c(=O)c2c3c(sc21)CN(C)CC3 |  | inconclusive: 56.2 µM [inhibitor, partial curve, poor fit] |
